Laboratory results as given in article PMC6398486.
These are yes or no findings as the source states them, for the method shown. In cells and extracts the contact can be indirect. These calls come from enrichment with a bait or labelling near it, and not all partners need be listed.

Amino acid sequences for entries named in this document (tags omitted). Residues count along the entry.
UniProt Q55FG3, residues 2725-3848: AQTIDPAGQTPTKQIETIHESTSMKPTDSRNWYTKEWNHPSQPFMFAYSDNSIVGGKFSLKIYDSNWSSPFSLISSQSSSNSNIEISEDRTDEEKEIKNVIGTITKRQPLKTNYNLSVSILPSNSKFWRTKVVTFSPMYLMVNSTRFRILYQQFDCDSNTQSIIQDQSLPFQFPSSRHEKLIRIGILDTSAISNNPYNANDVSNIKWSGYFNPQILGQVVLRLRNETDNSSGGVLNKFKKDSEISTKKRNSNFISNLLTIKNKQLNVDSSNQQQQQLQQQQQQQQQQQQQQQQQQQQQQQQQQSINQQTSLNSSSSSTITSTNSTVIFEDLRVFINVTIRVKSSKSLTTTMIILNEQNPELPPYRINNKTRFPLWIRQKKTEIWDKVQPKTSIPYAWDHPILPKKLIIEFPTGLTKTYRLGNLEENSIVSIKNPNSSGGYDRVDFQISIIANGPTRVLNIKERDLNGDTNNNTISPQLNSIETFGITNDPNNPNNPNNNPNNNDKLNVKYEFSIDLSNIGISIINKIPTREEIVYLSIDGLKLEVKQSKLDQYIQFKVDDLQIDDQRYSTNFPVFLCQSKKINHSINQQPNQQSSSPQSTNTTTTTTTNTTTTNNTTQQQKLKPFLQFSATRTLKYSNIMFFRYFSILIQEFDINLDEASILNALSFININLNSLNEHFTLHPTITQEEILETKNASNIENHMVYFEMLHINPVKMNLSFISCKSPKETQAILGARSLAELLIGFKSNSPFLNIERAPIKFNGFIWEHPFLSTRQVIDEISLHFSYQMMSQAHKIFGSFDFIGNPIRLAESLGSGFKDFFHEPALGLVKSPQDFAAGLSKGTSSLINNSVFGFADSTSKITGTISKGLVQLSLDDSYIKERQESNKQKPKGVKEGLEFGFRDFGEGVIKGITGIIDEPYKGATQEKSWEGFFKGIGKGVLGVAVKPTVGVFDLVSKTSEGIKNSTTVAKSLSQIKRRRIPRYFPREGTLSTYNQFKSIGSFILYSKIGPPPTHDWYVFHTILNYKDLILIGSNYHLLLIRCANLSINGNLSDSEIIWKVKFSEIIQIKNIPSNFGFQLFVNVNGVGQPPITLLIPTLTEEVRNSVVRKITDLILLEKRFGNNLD
UniProt P36411: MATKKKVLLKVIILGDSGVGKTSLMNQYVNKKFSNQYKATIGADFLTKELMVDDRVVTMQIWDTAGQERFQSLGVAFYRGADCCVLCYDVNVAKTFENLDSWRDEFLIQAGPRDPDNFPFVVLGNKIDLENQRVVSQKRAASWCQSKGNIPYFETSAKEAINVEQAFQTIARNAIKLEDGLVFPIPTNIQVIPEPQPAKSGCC

Target: C-terminal region of TipC (amino acids 2725-3848) fused to GFP (D. discoideum) (UniProt Q55FG3)
Assay: affinity purification with mass spectrometry; GFP-Trap A beads on lysates of D. discoideum tipC- cells expressing TipC^2725-3848-GFP or GFP alone; 10 mM Tris-HCl pH 7.5, 150 mM NaCl, 4 h at 4°C; nano LC-MS/MS

Substance: Ras-like in rat brain 7A (Rab7A) (from UniProt P36411 1-203)
- binding: binds
